Values from PubChem BioAssay AID1224828 (NIAID, 2016)

- Assay: 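Regulators linking TLR4 signalling to p65 nuclear translocation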 (primary screen)
- Cells: mouse RAW264.7 G9 macrophage reporter cells (GFP-p65, Tnf promoter-mCherry)
- Reagent: siRNA pool against mouse genes, 100 nM
- Duration: 2 days siRNA transfection, then 40 min LPS before fixation
- Conditions: LPS (Salmonella minnesota R595) at 10 ng/ml
- Measurement: 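Microscopy ratio of nuclear to perinuclear-ring GFP-p65 signal, scaled to the plate median; gene score is the average of two replicate robust z-scores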
- Direction: p65 translocation robust z-score: higher = more nuclear NF-kappaB p65 after LPS than the plate median; nuclear/cytoplasmic p65 ratio: higher = more nuclear NF-kappaB p65
- Call rule: 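Active if robust z is above 3.3 (negative regulators) or below -1.56, the Tlr4 control median (positive regulators); activity score 50 or more; control wells not called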
- Meaning of the calls: active = hit (p65 shift raised or lowered); inactive = no clear change
This is a random part of about 17,000 reagents. 762 of all reagents (4.5%) were called active. 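Active calls include both raised and lowered p65 entry, mostly lowered; wells with fewer than 50 cells lack a z-score.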 The raw values are shown without normalisation. Entries without a mark were called inactive. The numbers tell different reagents against one gene apart. Some reagents were tested in more than one well and are listed for each.

target gene,reagent,p65 translocation robust z-score,"nuclear/cytoplasmic p65 ratio, rep 1","nuclear/cytoplasmic p65 ratio, rep 2",low cell count flag
Mmp9,1,0.71,1.6,1.37,enough cells to score
H2-T3,1,2.09,1.93,1.88,enough cells to score
Ugcg,1,-0.55,1.53,1.34,enough cells to score
Abcf3,1,0.9,1.68,1.88,enough cells to score
Mcm10,1,-1.48,1.49,1.33,enough cells to score
Exoc8,1,-0.13,1.5,1.76,enough cells to score
Arhgef10,1,-0.82,1.43,1.56,enough cells to score
Dtd2,1,,1.29,1.47,fewer than 50 cells per well; well left out of scoring
Igf1r,1,-0.34,2.15,1.33,enough cells to score
Tgs1,1,0.34,1.29,1.39,enough cells to score
Glis2,1,-0.24,1.37,1.37,enough cells to score
Pbrm1,1,-0.47,1.32,1.41,enough cells to score
Unc50,1,,1.49,1.32,fewer than 50 cells per well; well left out of scoring
Gng7,1,-2.43 (active),1.21,1.18,enough cells to score
1700067K01Rik,1,1.62,1.52,1.71,enough cells to score
Fut1,1,-0.92,1.36,1.21,enough cells to score
Htt,1,0,1.42,1.39,enough cells to score
Or2r11,1,,1.55,1.1,fewer than 50 cells per well; well left out of scoring
Airim,1,0.32,1.41,1.59,enough cells to score
Il3,1,,1.25,0,fewer than 50 cells per well; well left out of scoring
Foxo3,1,0.12,1.41,1.42,enough cells to score
Htra1,1,1.79,1.8,1.59,enough cells to score
Itprid2,1,0.52,1.46,1.32,enough cells to score
Bmp8b,1,1.68,1.55,1.76,enough cells to score
Gpr68,1,-0.27,1.51,1.5,enough cells to score
Gdf9,1,-1.37,1.26,1.19,enough cells to score
Ptprg,1,1.19,1.89,1.52,enough cells to score
Myo1e,1,0.25,1.86,1.6,enough cells to score
Gm10128,1,,1.49,1.34,fewer than 50 cells per well; well left out of scoring
Fgr,1,0.89,1.83,1.39,enough cells to score
Cebpd,1,-2 (active),1.25,1.5,enough cells to score
Adrb2,1,-0.18,1.59,1.41,enough cells to score
Adrb2,1,-0.03,1.51,1.57,enough cells to score
Adam8,1,0.32,1.6,1.79,enough cells to score
Fkbpl,1,0.38,1.44,1.46,enough cells to score
Cacnb2,1,0.3,1.61,1.86,enough cells to score
Mzt2,1,1.25,1.57,1.63,enough cells to score
Or5e1,1,0.59,1.52,1.35,enough cells to score
Siglecg,1,-0.4,1.49,1.49,enough cells to score
Sdf2l1,1,1.19,1.52,1.4,enough cells to score
Cdk9,1,-0.76,1.52,1.33,enough cells to score
Pdgfa,1,-0.44,1.4,1.35,enough cells to score
Loxhd1,1,,1.15,1.24,fewer than 50 cells per well; well left out of scoring
Ppie,1,,1.49,1.16,fewer than 50 cells per well; well left out of scoring
Atp1b4,1,-0.26,1.41,1.63,enough cells to score
Uhrf1,1,0.61,1.58,1.6,enough cells to score
Stard13,1,-0.64,1.32,1.17,enough cells to score
Top1,1,-0.48,1.4,1.51,enough cells to score
Tnf,1,-0.21,1.45,1.53,enough cells to score
Kcmf1,1,-1.18,1.35,1.3,enough cells to score
Bckdhb,1,0.15,1.59,1.69,enough cells to score
Pphln1,1,,1.82,1.07,fewer than 50 cells per well; well left out of scoring
Ctcf,1,-1.1,1.35,1.22,enough cells to score
Or6c201,1,,1.43,1.29,fewer than 50 cells per well; well left out of scoring
Psd,1,-0.1,1.44,1.51,enough cells to score
Fsd1l,1,0.42,1.47,1.59,enough cells to score
D830014E11Rik,1,0.39,1.57,1.66,enough cells to score
Thoc5,1,-1.23,1.39,1.38,enough cells to score
Tmtc2,1,,1.39,1.25,fewer than 50 cells per well; well left out of scoring
Tmtc2,2,,1.46,1.66,fewer than 50 cells per well; well left out of scoring

4 consecutive reagents from above:
target gene,reagent,p65 translocation robust z-score,"nuclear/cytoplasmic p65 ratio, rep 1","nuclear/cytoplasmic p65 ratio, rep 2",low cell count flag
D830014E11Rik,1,0.39,1.57,1.66,enough cells to score
Thoc5,1,-1.23,1.39,1.38,enough cells to score
Tmtc2,1,,1.39,1.25,fewer than 50 cells per well; well left out of scoring
Tmtc2,2,,1.46,1.66,fewer than 50 cells per well; well left out of scoring
